Measured values published in patent EP3791713A1.
These are yes or no findings as the source states them, for the method shown. Some results given as binding are weak or reduced against the parent protein; the word gives no strength.

Target: T1, Mp10 (SEQ ID NO:4), factor of Myzus persicae, a member of the OS-D superfamily (Myzus persicae)
T1 sequence: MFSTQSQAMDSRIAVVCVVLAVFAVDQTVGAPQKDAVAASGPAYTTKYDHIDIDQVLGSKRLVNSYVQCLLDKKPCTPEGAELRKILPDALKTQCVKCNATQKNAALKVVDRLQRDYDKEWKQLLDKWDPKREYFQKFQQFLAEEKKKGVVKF
Assay: yeast two-hybrid

B1: Arabidopsis thaliana AMSH2 (SEQ ID NO:3), wild type (protein)
chain: MVTLSSPSPSLSCVENVTCKSSHVSRVLISGTDNINHGESSEAKILRDVHISERLLEDFTELARENTEKDLETCGTLAAFLERGIFYVTTLIIPKQESTSNSCQAMNEVEVFSIQNERELYPVGWIHTHPSQGCFMSSVDLHTHYSYQVMVPEAFAIVVAPTDSSKSYGIFKLTDPGGMEVLRGCSETGFHPHKEPEDGNPVYEHCSNVYKNSNLRFEIFDLR
In the case of B1, the binding is reported as “binds”.
